Reference: the supplement of paper PMC12889115
The list shows a part of the results. These are raw signals, not scaled to a control.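 First-pass screen: polymyxin B was added at a level that permeabilizes the Salmonella outer membrane while sparing the inner membrane. DMSO wells, with and without polymyxin B, defined maximum growth. Because plates differed from one another, each plate's data were ranked separately and the compounds with the lowest OD600 were carried forward as hits.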

System: Salmonella enterica serovar Typhimurium SL1344
Assay: bacterial growth OD600 after 18 h with compound and polymyxin B; higher = more bacterial growth (less inhibition)
Settings: 50 µM, Mueller-Hinton broth

Cc1cc(Cl)c2oc(C(=O)N3CCC(C(=O)N4CCCCC4)CC3)c(C)c2c1
bacterial growth OD600 (polymyxin B 1 µg/mL): 0.073

COCCn1c(-c2ccccn2)nc2cc(NC(C)=O)cc(C(=O)NC3CCCc4ccccc43)c21 (stereo not given)
bacterial growth OD600 (polymyxin B 0.75 µg/mL): 0.758

CCc1nccn1CCC(=O)N(C)CC1CCN(CCc2ccccc2F)CC1
bacterial growth OD600 (polymyxin B 1 µg/mL): 1.02

COCc1ccc(CN2CCCC(CCC(=O)NCc3ccc(OC)cc3OC)C2)o1 (stereo not given)
bacterial growth OD600 (polymyxin B 1 µg/mL): 0.993

Cn1cc(CN2CCC(C(O)c3nccn3C)CC2)c(-c2cccc(Cl)c2)n1 (stereo not given)
bacterial growth OD600 (polymyxin B 1 µg/mL): 0.746

CCOC(=O)C1(Cc2ccc(F)cc2)CCCN(C(=O)c2ccc(OC)c(OC)c2)C1 (stereo not given)
bacterial growth OD600 (polymyxin B 1 µg/mL): 1.02

CC(C)c1csc(CNC2CCCN(c3ncccn3)C2)n1 (stereo not given)
bacterial growth OD600 (polymyxin B 1 µg/mL): 1.09

CCn1cc(C(=O)N2CCc3[nH]nc(-c4ccccc4F)c3C2)cn1
bacterial growth OD600 (polymyxin B 0.75 µg/mL): 0.854

O=C(NCC1CCCN(C(=O)C2(c3ccccc3)CC2)C1)c1ccc(F)cc1 (stereo not given)
bacterial growth OD600 (polymyxin B 1 µg/mL): 0.846

Cc1nonc1C1CCCN1c1ccc(-c2nc(C3CC3)no2)cn1 (stereo not given)
bacterial growth OD600 (polymyxin B 1 µg/mL): 0.008

COc1ccc(CN2CCC(n3nccc3NC(=O)Cc3ccccc3)CC2)cc1OC
bacterial growth OD600 (polymyxin B 0.75 µg/mL): 0.816

COc1ccc(CNC(=O)CCC2CCCN(Cc3cccc(C)n3)C2)c(OC)c1 (stereo not given)
bacterial growth OD600 (polymyxin B 0.75 µg/mL): 0.884

COc1cccc(NC(=O)CCC2CCN(Cc3nccs3)CC2)c1
bacterial growth OD600 (polymyxin B 1 µg/mL): 0.823

COc1cccc(-c2nn(-c3ccccc3)cc2CN2CCCC(CN3CCCC3=O)C2)c1 (stereo not given)
bacterial growth OD600 (polymyxin B 1 µg/mL): 0.88

Cc1ncc2c(c1CNC(=O)Cc1ccsc1)CCN(C(=O)Cc1c(F)ccc(F)c1F)C2
bacterial growth OD600 (polymyxin B 0.75 µg/mL): 0.824

CCn1cc(CN2CCCC(CNC(=O)C3(c4ccc(Cl)cc4)CC3)C2)cn1 (stereo not given)
bacterial growth OD600 (polymyxin B 1 µg/mL): 0.903

Cc1ncc(CN2CCC3(CCCN(Cc4ccc(C(C)C)cc4)C3=O)C2)cn1 (stereo not given)
bacterial growth OD600 (polymyxin B 1 µg/mL): 0.846

CC(C)CC(=O)C(=O)N1CCC(N2CCC(C(=O)NCC3CCCO3)CC2)CC1 (stereo not given)
bacterial growth OD600 (polymyxin B 1 µg/mL): 1.04

CCN(CC)CCN(CC)C(=O)Cn1nnnc1CN(C)C(C)C
bacterial growth OD600 (polymyxin B 0.75 µg/mL): 0.827

Cc1ccccc1CN1C[C@@H]2C[C@@H](c3cnn(C)c3C)N3CCC[C@@]23C1=O
bacterial growth OD600 (polymyxin B 0.75 µg/mL): 0.789

Cc1ccc2[nH]nc(C(=O)NCc3nc(-c4ccc(NC(=O)Cc5ccccc5)cc4)oc3C)c2c1
bacterial growth OD600 (polymyxin B 0.75 µg/mL): 0.836

COc1cccc(CN2CCN(C(=O)CCC3(Cc4ccc(F)cc4)CCC(=O)N3)CC2=O)c1 (stereo not given)
bacterial growth OD600 (polymyxin B 0.75 µg/mL): 0.816

CN(Cc1cnc(S(=O)(=O)CC2CC2)n1CC1CCCCC1)C1CCOC1 (stereo not given)
bacterial growth OD600 (polymyxin B 1 µg/mL): 0.868

CCOC(=O)C1(CCc2ccccc2)CCCN(C(=O)c2cnccn2)C1 (stereo not given)
bacterial growth OD600 (polymyxin B 1 µg/mL): 0.917

CC(C)CC1(C2CCN(C(=O)c3ccc(F)c(Cl)c3)CC2)NC(=O)N(Cc2cccs2)C1=O (stereo not given)
bacterial growth OD600 (polymyxin B 0.75 µg/mL): 0.129

COC(=O)c1ccccc1C(=O)N1CCC(CCC(=O)NCc2cccnc2)CC1
bacterial growth OD600 (polymyxin B 1 µg/mL): 0.799

O=C(C[n+]1cc([O-])on1)N1CCc2c([nH]c3ccccc23)C1C1CCCCC1 (stereo not given)
bacterial growth OD600 (polymyxin B 1 µg/mL): 1.01

O=C1CCC(CCC(=O)N2CCN(Cc3cccc(F)c3)C(=O)C2)(Cc2ccc(Cl)cc2)N1 (stereo not given)
bacterial growth OD600 (polymyxin B 0.75 µg/mL): 0.91

Cc1c(C(C)NCc2ccccc2OC(F)F)cnn1-c1ccccc1 (stereo not given)
bacterial growth OD600 (polymyxin B 0.75 µg/mL): 0.829

CC(C)Cn1c(CN(C)Cc2ccccc2)cnc1S(=O)(=O)Cc1ccccc1
bacterial growth OD600 (polymyxin B 1 µg/mL): 0.552
